Assay results published in PubChem BioAssay AID2685 (National Center for Advancing Translational Sciences (NCATS), 2010).
This is one part of the list. These are further read-outs of the screen, such as a control signal, another cell line or another target. No call is given for them. Most of these compounds were active or inconclusive in the main read-out, so they are no random draw. Potencies come from curve fits of mixed quality, noted in brackets.

Assay: qHTS Assay for Lipid Storage Modulators in Drosophila S3 Cells;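 as to cell number change: cells counted by Cell Tracker Red CMTPX staining in the red channel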
Settings: BODIPY lipid droplet fluorescence, 18-24 h; for cell number change: measured here: cell count max response, cells fed with added oleic acid
Procedure, shortened: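 Drosophila S3 cells got compounds at several concentrations plus oleic acid (400 uM solution). Laser-scanning cytometry with 488 nm excitation read lipid droplets at 500-530 nm and cells at 575-640 nm. Percent activity was relative to 20 uM Triacsin C.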

[1] = measured here: lipid fluorescence (Fed channel) AC50, cells fed with added oleic acid
[2] = measured here: cell number channel AC50, cells fed with added oleic acid

| Structure (SMILES) | cell number change | AC50 [1] | AC50 [2] |
| --- | --- | --- | --- |
| Cc1cc2cc3c(cc2nc1SCC(=O)N1CCCC1)OCCO3 | -0.403% |  |  |
| CC(=O)N1CCN(C2=NC(=O)/C(=C/c3ccc(OS(=O)(=O)c4ccccc4)cc3)S2)CC1 | 0.763% | 0.651 µM [falling, full curve] |  |
| COCCNC(=O)C(c1ccc(F)cc1)N(Cc1ccccc1)C(=O)CCC(=O)Nc1ccccn1 (configuration not stated) | -2.86% |  |  |
| Cn1c(=O)n(C)c2cc(/C=N/NC(N)=S)ccc21 | 41.8% |  | 18.4 µM [rising, single point] |
| COc1cccc2cc(C(=O)C3=C(O)C(=O)N(Cc4ccco4)C3c3cccnc3)oc12 (configuration not stated) | 14.9% | 29.1 µM [rising, single point] |  |
| CCOc1ccccc1N1CCN(C/C=C/c2ccc(N(C)C)cc2)CC1 | -24.2% | 0.146 µM [falling, full curve, poor fit] |  |
| Cc1cc2occ(CC(=O)N(CCC(C)C)c3c(N)n(Cc4ccccc4)c(=O)[nH]c3=O)c2cc1C | -54% | 2.06 µM [falling, partial curve] |  |
| COc1cc(C(=O)OCc2cc(=O)oc3c(C)c(C)ccc23)ccc1OC(F)F | -13.2% |  |  |
| O=S(=O)(c1ccccc1)c1ccc(NCc2ccco2)cc1 | -0.106% | 0.366 µM [rising, full curve, poor fit] |  |
| COc1ccc(Nc2nc(Nc3ccc(OC)cc3OC)nc(N3CCN(C)CC3)n2)c(OC)c1 | 17.8% | 2.06 µM [rising, full curve, poor fit] |  |
| COc1ccc(NC(=O)Cc2ccc(-c3ccccc3)cc2)cn1 | 22.9% |  |  |
| CCOC(=O)C1CCCN(C(=O)c2cc(S(=O)(=O)N3CCCCC3)ccc2Cl)C1 (configuration not stated) | 24.5% |  |  |
| CCOc1ccc(NC(=O)CSc2ncnc3c2sc2ccccc23)cc1 | 1.82% | 0.058 µM [rising, full curve, poor fit] |  |
| CCc1nn(C(CC)C(=O)NCC(C)c2ccccc2)c(=O)c2cc3occc3n12 (configuration not stated) | 5.75% | 0.13 µM [rising, full curve, poor fit] |  |
| COc1ccc(CNS(=O)(=O)NCc2ccc(OC)c(OC)c2)cc1OC | -1.09% | 3.66 µM [rising, partial curve] | 1.84 µM [rising, partial curve] |
| COCCn1c(C)nnc1SCC(=O)NNC(=O)c1ccc(Cl)cc1 | 16% |  |  |
| COCCNC(=O)NC12CC3CC(CC(C3)C1)C2 | 47.5% | 20.6 µM [rising, single point] | 29.1 µM [rising, single point] |
| COc1cccc(-n2c(C)cc(/C=C3\C(=N)N4N=C(CC(=O)N5CCOCC5)SC4=NC3=O)c2C)c1 | 22.7% |  |  |
| CCCNC(=O)CSc1nccn1Cc1ccc(OC)cc1 | -1.14% |  |  |
| COCCN(CC(=O)Oc1ccccc1P(=O)(OC)OC)Cc1ccccc1 | -13% |  |  |
| O=C1/C(=C/c2ccc(N3CCCC3)cc2)NC(=S)N1C1CC1 | 5.69% |  |  |

| Structure (SMILES) | cell number change | AC50 [1] | AC50 [2] |
| --- | --- | --- | --- |
| CCOC(=O)c1cccc(NC(=S)NC(=O)c2cccnc2)c1 | -37.8% |  | 29.1 µM [falling, single point] |
| O=C(O)COc1ccccc1/C=N/NC(=O)C(O)c1ccccc1 (configuration not stated) | -0.794% | 6.51 µM [rising, single point] |  |
| CC1Cc2ccccc2N1CC(=O)Nc1ccc(N2CCOCC2)cc1 (configuration not stated) | 9.49% | 2.91 µM [rising, single point] |  |
| COc1ccc(/C=C2\SC(=O)N(CCNC(=O)C3CSC4(C)CCC(=O)N34)C2=O)cc1 (configuration not stated) | -13% | 0.00461 µM [falling, full curve, poor fit] |  |
| Cc1cc(C(=O)Nc2ccccc2)c2ccccc2n1 | -3.02% | 29.1 µM [rising, single point] |  |
| O=C(CCC(=O)N1CCOCC1)c1ccc(F)cc1 | -19.8% | 3.26 µM [falling, partial curve, poor fit] |  |
| O=C(O)CCSC(=S)N1CCOCC1 | 8.64% |  |  |
| Cc1csc(C(=O)NCC(=O)NNC(=O)c2cccc(Cl)c2)c1 | -0.379% | 6.51 µM [rising, single point] |  |
| COC(=O)c1ccc(C(=O)OC)c(NC(=S)N2CCC(C(N)=O)CC2)c1 | -40.8% |  | 0.58 µM [falling, full curve] |
| CCCS(=O)(=O)N1CCN(C(=O)COc2ccc(OC)cc2)CC1 | 43.7% |  | 9.2 µM [rising, partial curve] |
| Cc1ccc(C(=O)Nc2cccnc2)cc1NC(=O)c1ccco1 | 10.1% |  | 0.0291 µM [rising, full curve, poor fit] |
| CSc1ccc(CN(C)CC(=O)NCc2ccc(F)cc2)cc1 | 144% | 20.6 µM [rising, single point] | 25.9 µM [rising, partial curve] |
| CCC(=O)N1c2ccccc2C(N(C(=O)CC)c2ccccc2)CC1C (configuration not stated) | 10.5% | 4.11 µM [rising, partial curve, poor fit] |  |
| COc1cc(/C=C(\C#N)c2nc3ccccc3[nH]2)ccc1O | -46.1% | 14.6 µM [falling, partial curve] | 13 µM [falling, partial curve] |
| CCC(C)NC(=O)Cn1cnc([N+](=O)[O-])c1 (configuration not stated) | 1.65% | 18.4 µM [rising, single point] |  |
| COCCNc1nc(Cl)c(C#N)s1 | 8.27% | 0.092 µM [falling, full curve, poor fit] |  |
| COc1cccc(C(=O)COC(=O)C2CC3CCCC(C2)C3=O)c1 (configuration not stated) | -15.7% | 6.51 µM [falling, single point] | 6.51 µM [falling, single point] |
| O=C(Cc1ccccc1)Nc1cccc(-c2nc3ncccc3o2)c1 | -171% |  | 29.1 µM [falling, single point] |
| COC(=O)c1ccc(/C=C(\C#N)c2nc3ccccc3s2)cc1 | 40.1% | 4.11 µM [rising, full curve, poor fit] | 18.4 µM [rising, partial curve] |
| Cc1occc1C(=O)N1CCN(S(=O)(=O)c2ccc(F)cc2)CC1 | -47.5% | 29.1 µM [falling, single point] | 16.4 µM [falling, single point] |
| CCc1ccc(NC(=O)C(C)Sc2nc(-c3ccco3)c(C#N)c(=O)[nH]2)cc1 (configuration not stated) | 46.7% | 23.1 µM [rising, single point] |  |

An excerpt from above with just cell number change and AC50 [2]:
Structure (SMILES) | cell number change | AC50 [2]
CCCNC(=O)CSc1nccn1Cc1ccc(OC)cc1 | -1.14% | 
O=C1/C(=C/c2ccc(N3CCCC3)cc2)NC(=S)N1C1CC1 | 5.69% | 
Cc1cc(C(=O)Nc2ccccc2)c2ccccc2n1 | -3.02% | 
Cc1csc(C(=O)NCC(=O)NNC(=O)c2cccc(Cl)c2)c1 | -0.379% | 
O=C(Cc1ccccc1)Nc1cccc(-c2nc3ncccc3o2)c1 | -171% | 29.1 µM [falling, single point]

(further entries)

| Structure (SMILES) | cell number change | AC50 [1] | AC50 [2] |
| --- | --- | --- | --- |
| CC(=O)N1CCN(c2ccccc2NC(=S)NC(=O)c2cc3ccccc3o2)CC1 | -32.2% |  | 2.59 µM [falling, full curve, poor fit] |
| COc1ccc(CNC(=O)C2=CC(c3ccc(C)cc3)=NS(=O)(=O)N2C)cc1 | 12.1% |  |  |
| CCCCC(=O)NC(c1ccc(Cl)cc1Cl)c1ccc2cccnc2c1O (configuration not stated) | -25.3% | 29.1 µM [rising, single point] |  |
| CN(CC(=O)Nc1cccc2ccccc12)c1ccc(S(=O)(=O)N2CCOCC2)cn1 | 31.1% | 29.1 µM [falling, single point] | 29.1 µM [rising, single point] |
| Cc1c(/C(O)=C2\C(=O)C(=O)N(CCCN(C)C)C2c2ccncc2)cnn1-c1ccccc1 (configuration not stated) | 18.8% |  |  |
| O=C(CCNC(=O)c1ccccc1Cl)NCCc1ccc(C(F)(F)F)cc1 | 15.8% |  | 6.51 µM [rising, single point] |
| O=C(CCC1CCCN(C(=O)c2ccccc2Cl)C1)N1CCN(c2ccccn2)CC1 (configuration not stated) | -6.11% | 6.51 µM [falling, partial curve, poor fit] |  |
| N#Cc1c([N+](=O)[O-])cc([N+](=O)[O-])cc1S(=O)(=O)Cc1ccccc1 | -91.6% | 6.51 µM [falling, single point] | 4.11 µM [falling, full curve] |
| Fc1cccc(NC(=S)NCc2ccccn2)c1 | -24.8% | 6.51 µM [rising, single point] | 6.51 µM [rising, partial curve, poor fit] |
| CCC1CCCCN1CCCNC(=O)c1cn(CC)c2ccc(S(=O)(=O)N(C)C3CCCCC3)cc2c1=O (configuration not stated) |  | 0.731 µM [falling, single point] |  |
| Cc1ccc(NC(=O)Cn2c(=O)n(Cc3ccco3)c(=N)c3c4c(sc32)COC(C)(C)C4)cc1 | 11.8% | 2.59 µM [rising, partial curve] |  |
| CN(C)C(=O)CSc1nnc(-c2ccc(S(=O)(=O)N3CCCC3)cc2)n1C |  | 29.1 µM [rising, single point] |  |
| Cc1ccccc1OCC(=O)NCC(=O)N/N=C/C=C/c1ccccc1 | 58.2% | 11.6 µM [rising, partial curve] | 5.8 µM [rising, partial curve] |
| CCCCCCCCCCC(=O)NNC(=O)c1c(O)c2ccccc2n(CC)c1=O | -17.7% | 29.1 µM [falling, single point] |  |
| CC(=O)C(C(C)=O)C1(O)C(=O)c2ccccc2C1=O | -21.9% | 29.1 µM [falling, single point] |  |
| Cc1onc(-c2ccccc2)c1C(=O)Nc1sc2c(c1C(N)=O)CCC2 | -8.68% | 25.9 µM [falling, single point] |  |
| CCOc1cc(/C=N/NC(=O)c2cc(C)[nH]n2)ccc1OC(=O)c1ccc([N+](=O)[O-])cc1 | -14.3% |  |  |
| CCOC(=O)c1csc(NC(=O)CN2CCCCC2)n1 | -7.7% | 0.146 µM [falling, full curve, poor fit] |  |
| Cc1ccc(C)c(-n2c(SCC(=O)NCC3CCCO3)nnc2-c2ccoc2C)c1 (configuration not stated) | 8.02% |  | 7.31 µM [rising, partial curve, poor fit] |

Record cards, from the list above:
CC(=O)N1CCN(C2=NC(=O)/C(=C/c3ccc(OS(=O)(=O)c4ccccc4)cc3)S2)CC1 as listed: cell number change: 0.763%; AC50 [1]: 0.651 µM [falling, full curve]
CCC(C)NC(=O)Cn1cnc([N+](=O)[O-])c1 (configuration not stated) as listed: cell number change: 1.65%; AC50 [1]: 18.4 µM [rising, single point]
